Protein sequences, listed by entry. Tags and fused reporters are not part of them. Lines headed by an entry give the natural chain unless they say otherwise; changes in a name come on top.
UniProt P18054: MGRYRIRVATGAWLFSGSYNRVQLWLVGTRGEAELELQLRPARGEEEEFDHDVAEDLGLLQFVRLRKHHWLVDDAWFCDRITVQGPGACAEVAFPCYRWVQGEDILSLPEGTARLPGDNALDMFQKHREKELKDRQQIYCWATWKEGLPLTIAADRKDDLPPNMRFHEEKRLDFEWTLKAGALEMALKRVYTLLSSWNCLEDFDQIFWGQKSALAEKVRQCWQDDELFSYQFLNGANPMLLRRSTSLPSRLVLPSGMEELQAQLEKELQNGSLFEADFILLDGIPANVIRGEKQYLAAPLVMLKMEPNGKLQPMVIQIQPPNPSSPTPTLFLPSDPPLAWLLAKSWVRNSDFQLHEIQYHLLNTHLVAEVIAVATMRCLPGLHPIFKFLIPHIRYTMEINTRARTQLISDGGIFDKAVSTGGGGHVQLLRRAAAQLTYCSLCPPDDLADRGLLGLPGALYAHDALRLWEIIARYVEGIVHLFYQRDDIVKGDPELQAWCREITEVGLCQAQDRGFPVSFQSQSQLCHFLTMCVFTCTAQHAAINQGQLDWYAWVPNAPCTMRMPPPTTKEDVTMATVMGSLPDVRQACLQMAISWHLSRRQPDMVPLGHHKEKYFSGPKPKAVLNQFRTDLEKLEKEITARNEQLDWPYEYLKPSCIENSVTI

Where “and” joins values, the source holds several entries; their conditions need not be identical. Equal values may be shown once. About 6,100 (1.1%) of roughly 580,000 compounds were called active. The inconclusive results got no clear call from the source; some entries with a clear call stand among them for comparison. The call rests on the fitted dose curve; in most records, active means well fitted inhibition curve with a large enough effect; inconclusive means small, poorly fitted or top-dose-only effect, or another doubt; inactive means no such curve, though single readings can be large or run the other way. A potency beside an inconclusive call is a rough fit, not a confirmed value.
What follows are molecules tested against Polyunsaturated fatty acid lipoxygenase ALOX12 (Homo sapiens) (UniProt P18054) (assay: Primary qHTS assay for inhibitors of human arachidonate 12S-lipoxygenase (ALOX12): Round 2). Conditions: purified 12hLO, xylenol orange hydroperoxide absorbance; series mostly up to 108 µM.
In short: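 Purified human 12hLO at 150 nM in 25 mM Hepes, 0.01% Triton X-100, pH 7.0, preincubated 15 min at room temperature with compound. Reaction started with 40 uM arachidonic acid, 30 min at room temperature. Hydroperoxide measured by Fe-xylenol orange, 573/405 nm absorbance ratio.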
With CCc1ccc(CN(Cc2ccco2)C(=O)c2ccccc2)cc1 the Potency was inconclusive: 39.8 µM [inhibitor, partial curve, poor fit].
With COc1ccc(NC(=O)c2csnn2)cc1Cl the Potency was inconclusive: 100 µM [inhibitor, partial curve, poor fit].
COC(=O)c1ccc(COC(=O)c2cccn2C)o1 was tested, and the Potency was inconclusive: 56.2 µM [inhibitor, partial curve, poor fit].
With O=C(Nc1c(C(=O)NCc2ccco2)cnn1-c1ccccc1)c1cccc(F)c1 the Potency was inconclusive: 100 µM [inhibitor, single point].
In the case of COc1ccc(CNC(=O)Cn2ccn3nc4c(c3c2=O)CCCC4)cc1OC, the Potency is reported as “inactive”.
With Clc1ccc(SCCOCCN2CCc3ccccc3C2)cc1 the Potency was inconclusive: 28.2 µM [inhibitor, partial curve].
With COCCNC(=S)c1ccc(OC)cc1 the Potency was inconclusive: 10 µM [inhibitor, partial curve, poor fit].
For CCOc1cc(C2NC(=O)NC(C)=C2C(C)=O)cc(Cl)c1OCC(=O)O (stereo not given), the Potency was inconclusive: 2.51 µM [inhibitor, full curve, poor fit].
In the case of CC(C)(C)C(=O)CSc1nnc(-c2cccs2)n1CC1CCCO1 (stereo not given), the Potency is reported as inconclusive: 28.2 µM [inhibitor, full curve, poor fit].
O=C(Cc1ccc(Cl)cc1)NC1CCCN(Cc2ccccc2F)C1 (stereo not given) was tested, and the Potency was inconclusive: 39.8 µM [inhibitor, partial curve, poor fit].
In the case of C[C@]12C(=O)N(c3ccc(Br)cc3)C(=O)N1[C@@H]1c3ccccc3OC[C@@H]1[C@H]2c1ccccc1, the Potency is reported as “inactive”.
In the case of CC(NNC(=S)N1CCCCCC1)c1ccc2ccccc2n1 (stereo not given), the Potency is reported as inconclusive: 39.8 µM [inhibitor, partial curve, poor fit].
For CN(C)C(=O)C1CN(C(=O)c2cc(F)ccc2F)CC12CCOCC2 (stereo not given), the Potency was “inactive”.
CC(C)C[C@@H]1COc2cc(Br)ccc2S(=O)(=O)N1Cc1cn(Cc2ccc(Cl)cc2)nn1 was tested, and the Potency was inconclusive: 7.94 µM [inhibitor, full curve, poor fit].
With O=C(CN1C(=O)c2ccccc2S1(=O)=O)c1ccc(O)c(O)c1 the Potency was inconclusive: 141 µM [inhibitor, single point].
For N#Cc1c(-c2ccccc2)nc(-c2ccccc2)nc1N1CCOCC1, the Potency was “inactive”.
In the case of Cc1ccc(N=Cc2ccc(O)cc2O)cc1F, the Potency is reported as inconclusive: 44.7 µM [inhibitor, partial curve].
In the case of CC(CCn1cccn1)NC(=O)c1csc2nc(-c3ccc(C(F)(F)F)cc3)cn12 (stereo not given), the Potency is reported as “inactive”.
Cc1ccc(S(=O)(=O)NCC(C)O)cc1C (stereo not given) was tested, and the Potency was “inactive”.
In the case of CCN(CC1CCCO1)C(=O)CCc1nnc(Cc2ccc3c(c2)OCO3)o1 (stereo not given), the Potency is reported as inconclusive: 100 µM [inhibitor, single point].
With O=C(OCC(=O)c1ccc[nH]1)c1ccc(S(=O)(=O)Nc2ccccc2)cc1 the Potency was “inactive”.
With CN(C)C(=O)c1nc(-c2cc(Cl)cc(Cl)c2)c2ccccn12 the Potency was inconclusive: 50.1 µM [inhibitor, partial curve, poor fit].
In the case of Nc1nnc(/C=C/c2ccccc2Cl)s1, the Potency is reported as inconclusive: 35.5 µM [inhibitor, single point].
With O=S(=O)(c1cccs1)N1CN(Cc2cccs2)c2nc3ccccc3nc21 the Potency was inconclusive: 89.1 µM [inhibitor, single point].
With Cc1ccc(NS(=O)(=O)c2ccc(Cl)c(N=Nc3c(O)[nH]c(=O)[nH]c3=O)c2)cc1Cl the Potency was inconclusive: 28.2 µM [inhibitor, partial curve, poor fit].
O=S(=O)(c1ccc2nc(N3CCN(c4ccccc4)CC3)ccc2c1)N1CCCC1 was tested, and the Potency was active: 3.55 µM.
With Cc1ccc(CNC(=O)CCc2ncc(-c3ccc(F)cc3)o2)cc1F the Potency was “inactive”.
With CCn1cc(C(=O)O)c(=O)c2cc(OC)ccc21 the Potency was inconclusive: 2.82 µM [inhibitor, full curve, poor fit].
With CC1(C)NC(=O)N(CC(=O)OCC(=O)c2ccc(Br)s2)C1=O the Potency was inconclusive: 50.1 µM [inhibitor, partial curve, poor fit].
CCn1nc(CC(C)C)cc1C(=O)N1CCCC(Nc2ccc(OC)cc2)C1 (stereo not given) was tested, and the Potency was “inactive”.
NC(=S)NC1CC2C=CC1C2 (stereo not given) was tested, and the Potency was inconclusive: 112 µM [inhibitor, single point].
With O=C(CSc1cccc[n+]1[O-])Nc1cccc2ccccc12 the Potency was inconclusive: 12.6 µM [inhibitor, full curve].
Oc1ccc(Cn2ccnc2)c2cccnc12 was tested, and the Potency was “inactive”.
Cc1cc(C(=O)Nc2c(C)cccc2C)n(-c2ccccc2)n1 was tested, and the Potency was inconclusive: 112 µM [inhibitor, single point].
For O=C(Nc1ccc(Oc2ccccc2)cc1)O[C@@H]1CO[C@H]2[C@@H]1OC[C@@H]2NC(=S)Nc1ccccc1, the Potency was inconclusive: 56.2 µM [inhibitor, partial curve, poor fit].
With CC(NC(=O)CSc1ccc2c(c1)OCCCO2)c1ccc2ccccc2c1 (stereo not given) the Potency was inconclusive: 50.1 µM [inhibitor, partial curve, poor fit].
For COc1ccc(NC(=O)c2nnn(Cc3cccc(F)c3)c2N)c(OC)c1, the Potency was “inactive”.
OC(C#CC(O)(c1ccccc1)c1ccccc1)c1ccc(F)cc1 (stereo not given) was tested, and the Potency was “inactive”.
In the case of CC(C)CCN(C(=O)Nc1ccc(Cl)c(Cl)c1)C1CCN(C(C)C)CC1, the Potency is reported as inconclusive: 17.8 µM [inhibitor, partial curve, poor fit].
With CC(C)Cc1nc(Nc2ccccc2C#N)c2nnn(Cc3ccccc3)c2n1 the Potency was “inactive”.
For O=C(Nc1ccccc1)N1CCC(Oc2ncccc2C(=O)N2CCOCC2)C1 (stereo not given), the Potency was inconclusive: 89.1 µM [inhibitor, partial curve, poor fit].
With CN1CCC2(C1)CN(Cc1ccccc1)c1ccc(C(=O)NC3CCCCC3)cc12 (stereo not given) the Potency was “inactive”.
With CC1=C[C@@H](CO)[C@H](C(C)C)C[C@H]1CC(=O)N1CCN(CCO)CC1 the Potency was inconclusive: 89.1 µM [inhibitor, partial curve, poor fit].
With NCC1CCCN(Cc2ccc(-c3nc(-c4ccncc4)cc(=O)[nH]3)cc2)C1 (stereo not given) the Potency was inconclusive: 3.98 µM [inhibitor, full curve].
In the case of Cc1nc(NC(=O)c2csc3ccccc23)sc1C, the Potency is reported as inconclusive: 44.7 µM [inhibitor, partial curve, poor fit] and inconclusive: 8.91 µM [inhibitor, partial curve, poor fit].
With Cc1ccc(NC(=O)N2CC3CCCN3c3ccccc32)cc1Cl (stereo not given) the Potency was “inactive”.
With COc1ccc2nc(NNC(=O)c3cc(=O)c4ccccc4o3)sc2c1 the Potency was inconclusive: 28.2 µM [inhibitor, partial curve, poor fit].
O=C(Nc1nncs1)c1cccnc1Cl was tested, and the Potency was inconclusive: 44.7 µM [inhibitor, partial curve, poor fit].
For Cc1cccc(Nc2nc(C)c(C(=O)Nc3ccccc3)s2)c1, the Potency was active: 12.6 µM.
For CC(CCc1ccc(O)cc1)N1CCC(Oc2ccc(C(=O)N3CCCC3)cc2)CC1 (stereo not given), the Potency was inconclusive: 100 µM [inhibitor, single point].
For O=C(Nc1cccn(Cc2c(Cl)cccc2Cl)c1=O)c1ccc(Cl)cc1Cl, the Potency was inconclusive: 50.1 µM [inhibitor, partial curve, poor fit].
For COC(=O)c1c(C)n(-c2ccccc2)c2ccc(O)cc12, the Potency was inconclusive: 50.1 µM [inhibitor, partial curve, poor fit].
In the case of CCCCn1c(N)c(N(CC(C)C)C(=O)Cn2c(=O)cnc3ccccc32)c(=O)[nH]c1=O, the Potency is reported as inconclusive: 79.4 µM [inhibitor, partial curve, poor fit].
For C/C=C/C=C\C(=O)Nc1cccc(C2=NOC3(C2)C[C@@H](C(N)=O)N(C(=O)/C(C)=C/C)C3)c1 (stereo not given in full), the Potency was inconclusive: 25.1 µM [inhibitor, partial curve, poor fit].
With COc1cccc(CNC(=O)C2CCN(S(=O)(=O)c3c(C)noc3/C=C/c3cccs3)CC2)c1 the Potency was “inactive”.
CC(Sc1nc(-c2ccccc2)c(-c2ccccc2)[nH]1)C(=O)NCC1CCCO1 (stereo not given) was tested, and the Potency was inconclusive: 7.08 µM [inhibitor, partial curve, poor fit].
For CC(Sc1ccccc1C(=O)NCC(=O)C(C)(C)C)C(=O)Nc1ccccc1 (stereo not given), the Potency was inconclusive: 20 µM [inhibitor, partial curve, poor fit].
For CC(C)c1ccc(N(CCc2ccccn2)C(=O)C(C)(C)C)cc1, the Potency was inconclusive: 35.5 µM [inhibitor, partial curve, poor fit].
With COC(=O)c1ccccc1OC the Potency was “inactive”.
Cc1cc(C)n(CCC(=O)N2[C@@H]3CC[C@H]2CC(NC(=O)c2ccc(F)cc2)C3)n1 (stereo not given in full) was tested, and the Potency was “inactive”.
With N#CC1C(=O)c2ccccc2C1c1ccccc1 (stereo not given) the Potency was inconclusive: 44.7 µM [inhibitor, partial curve, poor fit].
O=C(NCc1ccccc1)c1onc(CSc2ccccc2)c1C(=O)NCC1CC1 was tested, and the Potency was inconclusive: 112 µM [inhibitor, partial curve, poor fit].
With CCc1cc(/C(Cc2ccccn2)=N\Nc2ccccc2)c(O)cc1O the Potency was inconclusive: 50.1 µM [inhibitor, partial curve, poor fit].
For CC(C)NC(=O)c1cc2n(n1)CC(c1ccc3c(c1)OCO3)OC2 (stereo not given), the Potency was inconclusive: 14.1 µM [inhibitor, partial curve].
For CCc1ccccc1NC(=O)Cn1nnc2sc3c(c2c1=O)CCC(C(C)(C)C)C3 (stereo not given), the Potency was inconclusive: 112 µM [inhibitor, partial curve, poor fit].

Reference: PubChem BioAssay AID1671190 (National Center for Advancing Translational Sciences (NCATS), 2021)
Potency means the concentration at half of the fitted maximal effect.
